Source: ChEMBL document CHEMBL3988442, “University of Dundee, Small-Polar-MMV Screening Library” (2021).

Sequences of proteins named here, by UniProt entry; tags and fusion partners are left off.
UniProt E9BF75, entry or part of it: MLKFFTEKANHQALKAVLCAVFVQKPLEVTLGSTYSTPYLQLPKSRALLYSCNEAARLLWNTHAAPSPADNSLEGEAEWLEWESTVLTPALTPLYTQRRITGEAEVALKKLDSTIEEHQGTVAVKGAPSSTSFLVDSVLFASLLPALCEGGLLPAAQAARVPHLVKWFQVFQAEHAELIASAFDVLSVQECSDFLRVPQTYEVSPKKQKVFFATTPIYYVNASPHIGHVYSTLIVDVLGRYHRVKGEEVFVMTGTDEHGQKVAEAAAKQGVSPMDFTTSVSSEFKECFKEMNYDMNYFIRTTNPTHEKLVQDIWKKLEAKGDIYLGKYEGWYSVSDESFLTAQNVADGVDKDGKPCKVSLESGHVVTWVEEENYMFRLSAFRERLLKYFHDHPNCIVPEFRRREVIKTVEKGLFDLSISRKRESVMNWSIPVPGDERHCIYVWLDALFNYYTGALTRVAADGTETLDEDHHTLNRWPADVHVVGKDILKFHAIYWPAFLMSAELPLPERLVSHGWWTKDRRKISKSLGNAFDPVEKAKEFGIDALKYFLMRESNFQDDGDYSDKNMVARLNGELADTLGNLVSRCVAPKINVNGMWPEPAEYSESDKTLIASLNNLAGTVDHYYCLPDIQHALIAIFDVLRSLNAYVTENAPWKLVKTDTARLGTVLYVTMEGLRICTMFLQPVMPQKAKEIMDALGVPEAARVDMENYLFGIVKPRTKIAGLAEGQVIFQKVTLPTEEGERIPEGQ

All values are in %. The record does not define 0% and 100%; most values in the screen are far below 50% and negative numbers occur (in some assays of this library far below -100). The compounds are a random part of those screened.

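Methionyl-tRNA synthetase (putative), Leishmania donovani (UniProt E9BF75). Primary screen of methionyl-tRNA synthetase; the read-out is not stated. The test concentration is not given. Values are per cent inhibition. Of about 68,000 compounds tested this way, about 24 (0.035%) reached 50% or more in at least one test.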

compound: CCc1nnc(SC2CCCN(c3cccc(F)c3)C2=O)n1C (centres undefined)
Inhibition: 13.51

compound: CC(C)N1CC(c2ccnc(Nc3nccs3)n2)C1
Inhibition: 13.37

compound: CCS(=O)(=O)N1C[C@@H](c2cc(O)nc(C)n2)[C@H](c2ccccc2F)C1
Inhibition: 2.188

compound: O=c1c2ccccc2ncn1Cc1cc(C2CC2)[nH]n1
Inhibition: 8.616

compound: CN1C[C@@H](O)[C@]2(CCN(C(=O)OCc3ccccc3)C2)S1(=O)=O
Inhibition: 7.297

compound: CN(Cc1ccc(CCC(C)(C)O)cc1)Cc1cccc(O)c1
Inhibition: 3.922

compound: O=C1CCC2(CCNCC2)CN1CCCOc1cccnc1
Inhibition: 3.495

compound: COc1cccc(CC(=O)NC(C)c2nc3cccnc3n2C(C)C)c1 (centres undefined)
Inhibition: 8.387

compound: CC(C)CNC(=O)c1nn(C)c(NC(=O)Cc2ccccc2)c1F
Inhibition: 11.75

compound: CN(Cc1n[nH]c(=O)n1Cc1ccco1)S(C)(=O)=O
Inhibition: 10.56

compound: O=C1NCCN(C(=O)CN2CCOC2=O)C1c1cccc(F)c1 (centres undefined)
Inhibition: 5.136

compound: Cc1nn(C)cc1CN1CCCn2nc(CNC(=O)C3CCC3)cc2C1
Inhibition: 15.38

compound: CN1C[C@H](O)[C@]2(CCN(Cc3ccc(F)c(F)c3)C2)S1(=O)=O
Inhibition: 2.432

compound: CCOc1ccc(-n2nnc(C(=O)O)c2-c2ccncc2)cc1
Inhibition: 7.042

compound: CCNC(=O)N1CCc2ccc(NC(=O)NCc3ccsc3)cc21
Inhibition: 13.8

compound: O=C(CCN1CCCC(CO)(CC2CC2)C1)NC1CCCCC1 (centres undefined)
Inhibition: 17.75

compound: CN(C)CC(=O)N1Cc2cc(N(C)C)ccc2C1c1cnco1 (centres undefined)
Inhibition: 14.49

compound: COCC(NC(=O)c1cccnc1)c1cccc(C(F)(F)F)c1 (centres undefined)
Inhibition: 4.632

compound: Cc1cc(NC(C)Cn2cccn2)n2nccc2n1 (centres undefined)
Inhibition: 11.68

compound: COc1cccc(CN(C)C(C)c2ccco2)c1OCCn1ccnc1 (centres undefined)
Inhibition: 9.041

compound: CCN(C(=O)Nc1cccnc1OC)C1CC1
Inhibition: 7.692

compound: CNC(=O)[C@H]1C[C@@H]2CN(C(=O)c3ccc(C)nc3)C[C@@H]2N1C(C)C
Inhibition: 15.69

compound: Cc1noc(C)c1CNC(=O)Nc1ccc(N2CCSCC2)cc1
Inhibition: 17.72

compound: CC(C)C(=O)N1CCN(Cc2cnn(C)c2)CC2(CC(=O)N(C)C2)C1 (centres undefined)
Inhibition: 17.58

compound: Cc1ncccc1CNCC1COC2(CCCCC2)O1 (centres undefined)
Inhibition: -19.93

compound: Cc1ccc([C@@H]2CN(S(=O)(=O)C(C)C)C[C@H]2N(C)C)cc1
Inhibition: 15.24

compound: Cc1ccc(CNC2(Cc3cc(-c4cccc(O)c4)on3)COC2)o1
Inhibition: 3.051

compound: CC1C(=O)NCCN1CCOc1ccc(C#N)cc1 (centres undefined)
Inhibition: 19.2

compound: CN(Cc1nnnn1C1CC1)CC1COc2ccccc2O1 (centres undefined)
Inhibition: 15.97

compound: Cc1cc(NCCNc2cccnc2)nc(-c2ccccc2O)n1
Inhibition: 13.17

compound: O=C1N(Cc2ccncc2)CCC12CCCNC2 (centres undefined)
Inhibition: 16.25

compound: Cc1nc(CN2CCCN(CC(=O)Nc3cccnc3)CC2)no1
Inhibition: 2.778

compound: Cc1cc(C)n(CCCn2cncc2-c2ccc3c(c2)CC(C)N3C)n1 (centres undefined)
Inhibition: 45.6

compound: O=C(NCc1cc(O)ncn1)C1CCOc2ccccc2C1 (centres undefined)
Inhibition: 14.07

compound: CC(C)(C)c1ncc(CNc2ccn(CCc3ccncc3)n2)s1
Inhibition: 13.12

compound: Cc1ccc2ncn(C(C)Cn3cccn3)c(=O)c2c1 (centres undefined)
Inhibition: 1.023

compound: CCCC(=O)N(C)Cc1nc(N2CCCC2)ncc1-c1ccncc1
Inhibition: 24.69

compound: c1cncc(OCc2n[nH]c3c2CN(Cc2cccs2)C3)c1
Inhibition: 11.76

compound: Cn1cccc1CN1CCC2(CC1)CCN(C(=O)c1cnccn1)CC2
Inhibition: -0.6849

compound: CCNC(=O)c1ccc2c(c1)nc1n2CCN(C(C)C)C1
Inhibition: 6.286

compound: Cc1nc(N[C@H]2COC[C@@H]2N2CCCCC2)c2c(C)nn(C)c2n1
Inhibition: 12.32

compound: Cc1nc(-c2ccccc2)cc(C2CCNCC2)n1
Inhibition: 5.851

compound: CCN1CCC(CNC(=O)NCc2cc(-c3ccc(C)cc3)no2)C1 (centres undefined)
Inhibition: 16.19

compound: OCCN1CCC2(CCc3cc(-c4ccoc4)ccc32)CC1
Inhibition: 12.28

compound: COCC1c2nnn(C)c2CCN1C(=O)Cc1ccccn1 (centres undefined)
Inhibition: 14.03

compound: O=C(NCC(=O)N1CCCC1)c1nc(Cc2c(Cl)cccc2Cl)no1
Inhibition: 16.62

compound: Cn1cnc2ccc(NC(=O)CC3CCN(S(C)(=O)=O)CC3)cc21
Inhibition: 0.9317

compound: Cc1cc(CN2CCN(Cc3cnc4c(c3)c(C)nn4C)CC2)on1
Inhibition: 14.93

compound: CN(Cc1ccc(F)c2cccnc12)C1CCS(=O)(=O)C1 (centres undefined)
Inhibition: 6.522

compound: Oc1cc(CN2CCC(O)(Cn3ccnc3)CC2)nc2ccc(F)cc12
Inhibition: 8.108

The first 4 entries again:

compound	Inhibition
CCc1nnc(SC2CCCN(c3cccc(F)c3)C2=O)n1C (centres undefined)	13.51
CC(C)N1CC(c2ccnc(Nc3nccs3)n2)C1	13.37
CCS(=O)(=O)N1C[C@@H](c2cc(O)nc(C)n2)[C@H](c2ccccc2F)C1	2.188
O=c1c2ccccc2ncn1Cc1cc(C2CC2)[nH]n1	8.616